Measurements: article PMC4640669
Results are given in words; binding and its absence hold for the method and conditions named. Some entries that bind do so weakly or less than the wild type.

Protein sequences, listed by entry. Tags and fused reporters are not part of them.
UniProt Q61501: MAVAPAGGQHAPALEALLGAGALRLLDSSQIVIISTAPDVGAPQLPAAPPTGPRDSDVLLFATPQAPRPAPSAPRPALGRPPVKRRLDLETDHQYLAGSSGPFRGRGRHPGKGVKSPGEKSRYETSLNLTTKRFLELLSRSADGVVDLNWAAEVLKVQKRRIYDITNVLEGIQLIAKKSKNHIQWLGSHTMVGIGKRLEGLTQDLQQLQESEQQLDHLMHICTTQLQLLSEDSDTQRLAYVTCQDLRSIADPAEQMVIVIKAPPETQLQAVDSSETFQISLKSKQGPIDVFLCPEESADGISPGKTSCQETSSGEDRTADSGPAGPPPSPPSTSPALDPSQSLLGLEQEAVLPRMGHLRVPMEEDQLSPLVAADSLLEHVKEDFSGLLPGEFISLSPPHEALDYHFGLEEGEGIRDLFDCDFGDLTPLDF

Target: T1, retinoblastoma tumor suppressor protein (Rb) (mouse (endogenous in MC3T3)) (UniProt P13405)
T1 sequence: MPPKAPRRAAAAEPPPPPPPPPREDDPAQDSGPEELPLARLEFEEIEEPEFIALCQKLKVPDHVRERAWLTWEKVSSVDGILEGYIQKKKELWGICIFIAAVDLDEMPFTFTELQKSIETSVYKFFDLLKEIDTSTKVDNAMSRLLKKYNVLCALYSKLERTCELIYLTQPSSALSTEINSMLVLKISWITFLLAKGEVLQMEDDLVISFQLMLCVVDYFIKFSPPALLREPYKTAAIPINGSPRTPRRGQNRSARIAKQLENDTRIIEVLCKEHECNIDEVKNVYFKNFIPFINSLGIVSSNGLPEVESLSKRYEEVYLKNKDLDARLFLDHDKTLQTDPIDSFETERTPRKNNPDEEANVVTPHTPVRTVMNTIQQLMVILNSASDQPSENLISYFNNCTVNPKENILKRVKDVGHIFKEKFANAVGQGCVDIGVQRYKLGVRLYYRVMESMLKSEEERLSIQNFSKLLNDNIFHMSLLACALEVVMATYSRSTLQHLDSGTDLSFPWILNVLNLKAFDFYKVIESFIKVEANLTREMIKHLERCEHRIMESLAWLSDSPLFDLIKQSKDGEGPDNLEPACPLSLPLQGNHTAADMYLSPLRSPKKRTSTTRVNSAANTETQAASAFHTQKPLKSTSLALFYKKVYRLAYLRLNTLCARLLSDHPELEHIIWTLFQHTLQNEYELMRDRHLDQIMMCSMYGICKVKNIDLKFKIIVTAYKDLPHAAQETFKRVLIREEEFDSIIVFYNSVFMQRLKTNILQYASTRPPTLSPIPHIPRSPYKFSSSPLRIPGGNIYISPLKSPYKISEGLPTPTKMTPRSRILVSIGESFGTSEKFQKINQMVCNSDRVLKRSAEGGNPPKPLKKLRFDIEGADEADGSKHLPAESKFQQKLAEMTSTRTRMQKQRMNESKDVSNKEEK
Assay: sequential chromatin immunoprecipitation (ChIP-on-ChIP); Rb+/+ MC3T3 cells cross-linked with 1% formaldehyde, DNA sheared to 1.0-1.5 kbp; immunoprecipitate obtained with anti-Rb antibody subjected to a second round with anti-E2F1 antibody; read out by PCR with primers against the Pak1 promoter

binding: binds
Substance: E2F1 transcription factor (from UniProt Q61501 1-430)
